From PubChem BioAssay AID493014 (National Center for Advancing Translational Sciences (NCATS), 2011)
The other results are listed elsewhere or left out. These are further read-outs of the screen, such as a control signal, another cell line or another target. No call is given for them. Most of these compounds were active or inconclusive in the main read-out, so they are no random draw. The note in brackets gives the kind of curve behind each potency; many fits are weak.

Test: qHTS Assay to Find Inhibitors of Chronic Active B-Cell Receptor Signaling
Conditions: ABC-DLBCL IkBa-CBG/CBR reporter, luminescence ratio (green luciferase fused to IkBa over red control in TMD8 lymphoma cells), 4 h
In short: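 Doxycycline induced both beetle luciferases in TMD8 lymphoma cells; IKK-driven degradation limits the IkappaBalpha-fused green signal, while red luminescence normalises for cell number and nonspecific effects. Compounds tested up to 46 uM, 4 hrs.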

[1] = measured here: CBR red luminescence, cell number

Row | SMILES | AC50 [1] | AC50 (measured here: IkBa-CBG green luminescence)
1 | COc1ccc(C2=CC(c3cc(OC)c(OC)c(OC)c3)NC(=S)N2)cc1 (stereo unspecified) | 2.31 µM [rising, partial curve] | 
2 | COc1cccc(CN(C)C(=O)c2[nH]c(C)c(C(C)=O)c2C)c1OC | 17.8 µM [rising, single point] | 
3 | CCOC(=O)Cn1nnc(-c2ccccc2)n1 | 23.1 µM [rising, partial curve, poor fit] | 
4 | CCCCCCCN(C(=O)CCl)c1ccccc1C | 11.6 µM [falling, partial curve] | 
5 | COc1ccc(CNC(=O)CCCn2ncn3c(cc4occc43)c2=O)cc1 | 4.47 µM [rising, single point] | 
6 | C=CCn1cc(C(=O)OC)c(=O)c2cc(S(=O)(=O)N3CCCCCC3)ccc21 | 20 µM [falling, partial curve, poor fit] | 
7 | O=C1CCCC1C(=O)Nc1ccc2ccccc2c1 (stereo unspecified) | 1 µM [falling, full curve] | 
8 | CC(=O)N1CCC(N(CCN2CCOCC2)C(=S)Nc2ccc(C)c(C)c2)CC1 | 11.2 µM [rising, partial curve] | 
9 | CC(C)(C)c1ccc(C(=O)CCC(=O)NCc2ccccc2)cc1 | 29.1 µM [rising, partial curve, poor fit] | 29.1 µM [falling, partial curve, poor fit]
10 | CCS(=O)(=O)n1nc(-c2ccccc2)nc1SCc1ccccc1 | 10.3 µM [falling, partial curve, poor fit] | 
11 | c1ccc(-c2nc(-n3ccnc3)nc(-n3ccnc3)n2)cc1 | 5.8 µM [falling, partial curve] | 
12 | COc1ccc(C2C(C#N)=C(N)Oc3n[nH]c(C)c32)cc1CN1CCN(c2ccc(F)cc2)CC1 (stereo unspecified) | 20 µM [falling, partial curve, poor fit] | 
13 | CCN(CC)CCN(C(=O)c1ccc(Br)s1)c1nc2cc3c(cc2s1)OCCO3 | 10 µM [falling, partial curve, poor fit] | 
14 | Cc1ccc(-c2nnn(CC(=O)N(CC(=O)NC3CCCC3)c3cnc4ccccc4c3)n2)o1 | 18.4 µM [rising, single point] | 
15 | COc1ccc(C(C(=O)NCc2ccccc2)N(Cc2ccc3c(c2)OCO3)C(=O)c2cnccn2)cc1 (stereo unspecified) | 18.4 µM [rising, single point] | 
16 | CCn1cc(C2=NC(C)CO2)c2ccccc21 (stereo unspecified) | 8.2 µM [rising, partial curve, poor fit] | 
17 | Clc1ccc2nc(CSc3nc4ccccc4o3)cn2c1 | 3.26 µM [rising, partial curve, poor fit] | 
18 | O=C(Cc1cccc2ccccc12)OCn1nnc2ccccc2c1=O | 16.4 µM [falling, single point] | 
19 | COc1ccc(C(C)=O)cc1COC(=O)CNC(=O)c1ccc(F)cc1 | 18.4 µM [rising, partial curve] | 
20 | CCOC(=O)CCc1c(C(=O)OCC)[nH]c(CC)c1C(=O)OCc1ccccc1 | 15.8 µM [falling, partial curve, poor fit] | 

Row | SMILES | AC50 [1] | AC50 (measured here: IkBa-CBG green luminescence)
21 | CCOC(=O)Cn1c(=NC(=O)CSC(C)=O)sc2cc(OC)ccc21 | 1.16 µM [falling, full curve, poor fit] | 
22 | CC1(C)CC(=O)C(C=Nc2ccc(O)cc2)=C(O)C1 | 12.6 µM [falling, partial curve, poor fit] | 
23 | FC(F)(F)c1ccc(-n2cn[nH]c2=S)cc1 | 31.6 µM [rising, single point] | 
24 | COc1cc(/C=C/C(=O)O)cc(S(=O)(=O)NNC(=O)c2ccc3c(c2)OCO3)c1OC | 2.06 µM [falling, full curve, poor fit] | 
25 | COc1ccccc1NC(=S)NCCSc1ccc(C)cc1 | 2.91 µM [falling, partial curve, poor fit] | 
26 | Cc1ccc(S(=O)(=O)N2CCCCC2CCNC(=O)C(=O)Nc2ccccc2F)cc1 (stereo unspecified) | 4.61 µM [falling, partial curve] | 
27 | Cc1ccc(C)c(N2CCN(C(=O)c3ccc(CSc4nc5ccncc5[nH]4)cc3)CC2)c1 | 29.1 µM [falling, single point] | 
28 | COc1ccc(/C=C2\CN(Cc3ccccc3)C/C(=C\c3ccc(OC)c(O)c3)C2=O)cc1O | 35.5 µM [falling, single point] | 
29 | CCC(C)(C(=O)NC1CCCCC1)N(Cc1ccco1)C(=O)CC1NC(=O)NC1=O (stereo unspecified) | 6.51 µM [falling, single point] | 
30 | Cn1c(CN2CCCC2)nc2cc(NC(=O)Nc3ccccc3)ccc21 | 14.6 µM [falling, partial curve, poor fit] | 
31 | CS(=O)(=O)c1cccc(NC(=O)c2ccc(Cl)c(Cl)c2)c1 | 2.82 µM [rising, full curve] | 
32 | Cc1cc(C2=CC(C)(c3cc(C)oc3C)Nc3nc(C(F)(F)F)nn32)c(C)o1 (stereo unspecified) | 15.8 µM [falling, partial curve] | 
33 | Cc1cc(C)cc(NC(=O)CSc2nccn2Cc2ccco2)c1 | 5.62 µM [falling, full curve] | 
34 | O=C(CCCN1C(=O)c2ccccc2C1=O)OC1CSCC1NC(=O)c1ccccc1 (stereo unspecified) | 2.24 µM [rising, partial curve, poor fit] | 
35 | O=C(O)C1CCC(c2ccc(-c3ccccc3)cc2)CC1 (stereo unspecified) | 0.1 µM [falling, full curve, poor fit] | 
36 | CC(C)(C=O)Cc1cc(C(C)(C)C)c(O)c(C(C)(C)C)c1 | 29.1 µM [rising, partial curve, poor fit] | 
37 | c1ccc(-c2ccc(SCc3cccnc3)nn2)nc1 | 12.6 µM [falling, partial curve, poor fit] | 
38 | COc1ccc(-c2sc3cc4c(cc3c2C#Cc2cncn2C)OCO4)cc1 | 32.6 µM [rising, partial curve, poor fit] | 
39 | CCOC(=O)N(C)OC(=O)Nc1ccc(Cl)c(Cl)c1 | 5.01 µM [rising, full curve] | 
40 | Cc1cc(NC(=O)CSc2nc(-c3cccs3)cc(C(F)(F)F)n2)no1 | 6.51 µM [rising, single point] | 

Whole records, looked up by structure:
CCn1cc(C2=NC(C)CO2)c2ccccc21 (stereo unspecified) is listed as AC50 [1]: 8.2 µM [rising, partial curve, poor fit]
CCC(C)(C(=O)NC1CCCCC1)N(Cc1ccco1)C(=O)CC1NC(=O)NC1=O (stereo unspecified) is listed as AC50 [1]: 6.51 µM [falling, single point]
